# The list does not hold the whole screen: it is rich in T/C values a quarter to a half above the control, in often repeated tests (any T/C) and in doses without a T/C. Further doses and runs are listed elsewhere. T/C: endpoint of the treated group in % of that of the vehicle group. Some doses have a count of surviving animals in place of a T/C: the source holds a T/C of zero for them, seemingly a mark for toxic or unscored doses. Some doses without a T/C left all or most animals alive at the check, yet need not have been tolerated: the source hardly ever lists a survival T/C far under the control, and the zero likely stands for such cases as well. Counts of survivors are from the toxicity check (mostly the fifth day) where no day follows; animals may have died later. Schedule codes are those of the source, read here as Q, the interval in days (D) or hours (H), X, the number of doses. Signs of the kind (2×) stand for listed records that agree. Some molecules as drawn cover several salts, stereoisomers or complexes of the source; a dose is that of the sample tested. Some entries hold several experiments; their values stand side by side, smallest first. For survival time, the PubChem record calls one and a half times the control and up active, and a quarter to a half above the control has no call in these data; cut-offs in other NCI protocols can differ. Some T/C values carry the count of animals alive at the toxicity check (mostly the fifth day); where none is given, no animal had died by that day.
# Tested on: BDF1 mice, B16 melanoma ip, median survival T/C
# Experiment: NCI In Vivo Anticancer Drug Screen. Data for tumor model B16 Melanoma (intraperitoneal) in B6D2F1 (BDF1) mice
# Conditions: T/C endpoint: median survival time, higher T/C = longer survival
# In short: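 Values are ratios of treated (T) to vehicle-control (C) measurements of survival or tumor size in tumor-bearing mice.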
# [1] = dose: 50.0 mg/kg/injection, schedule: Q01DX009 (ip), vehicle: water
# [2] = dose: 100.0 mg/kg/injection, schedule: Q01DX009 (ip), vehicle: Klucel (hydroxypropylcellulose) (HPC)
# [3] = dose: 100.0 mg/kg/injection, schedule: Q01DX009 (ip), vehicle: water
# [4] = dose: 150.0 mg/kg/injection, schedule: Q01DX009 (ip), vehicle: water
# [5] = dose: 200.0 mg/kg/injection, schedule: Q01DX009 (ip), vehicle: Klucel (hydroxypropylcellulose) (HPC)
# [6] = dose: 400.0 mg/kg/injection, schedule: Q01DX009 (ip), vehicle: Klucel (hydroxypropylcellulose) (HPC)
# [7] = dose: 50.0 mg/kg/injection, schedule: Q01DX009 (ip), vehicle: saline
smiles,measurement,setting,value
O=C(O)c1c2c(nc3ccccc13)Cc1ccccc1-2,T/C,"dose: 25.0 mg/kg/injection, schedule: Q01DX009 (ip), vehicle: Klucel (hydroxypropylcellulose) (HPC)","103, 125, 134, 180 % of control"
same,T/C,"dose: 44.0 mg/kg/injection, schedule: Q01DX009 (ip), vehicle: water",139 % of control
same,T/C,"dose: 50.0 mg/kg/injection, schedule: Q01DX009 (ip), vehicle: Klucel (hydroxypropylcellulose) (HPC)","130, 135, 136, 209 % of control"
same,T/C,[1],135 and 141 % of control
same,T/C,"dose: 59.0 mg/kg/injection, schedule: Q01DX009 (ip), vehicle: Klucel (hydroxypropylcellulose) (HPC)",135 % of control
same,T/C,"dose: 67.0 mg/kg/injection, schedule: Q01DX009 (ip), vehicle: water",132 % of control
same,T/C,"dose: 89.0 mg/kg/injection, schedule: Q01DX009 (ip), vehicle: Klucel (hydroxypropylcellulose) (HPC)",141 % of control
same,T/C,"dose: 89.0 mg/kg/injection, schedule: Q04DX003 (ip), vehicle: Klucel (hydroxypropylcellulose) (HPC)",134 % of control
same,T/C,[2],"151, 169 [9 of 10 alive], 187, 231 % of control"
same,T/C,[3],"140 (2×), 157, 169 % of control"
same,T/C,"dose: 100.0 mg/kg/injection, schedule: Q04DX003 (ip), vehicle: water",130 % of control
same,T/C,"dose: 133.0 mg/kg/injection, schedule: Q01DX001 (ip), vehicle: Klucel (hydroxypropylcellulose) (HPC)",129 % of control
same,T/C,[4],135 % of control
same,survivor count,[4],10 of 10
same,survivor count,"dose: 150.0 mg/kg/injection, schedule: Q03HX016 (ip), vehicle: water",3 of 10
same,survivor count,"dose: 150.0 mg/kg/injection, schedule: Q03HX024 (ip), vehicle: water",4 of 10
same,T/C,[5],143 and 150 % of control [9 of 10 alive]
same,survivor count,[5],"7 of 10, 8 of 10, 9 of 10"
same,survivor count,"dose: 200.0 mg/kg/injection, schedule: Q01DX009 (ip), vehicle: water",8 of 10
same,T/C,"dose: 200.0 mg/kg/injection, schedule: Q04DX003 (ip), vehicle: Klucel (hydroxypropylcellulose) (HPC)",130 % of control
same,survivor count,"dose: 225.0 mg/kg/injection, schedule: Q01DX009 (ip), vehicle: water",2 of 10 and 10 of 10
same,T/C,"dose: 300.0 mg/kg/injection, schedule: Q01DX001 (ip), vehicle: Klucel (hydroxypropylcellulose) (HPC)",125 % of control
same,survivor count,"dose: 300.0 mg/kg/injection, schedule: Q01DX009 (ip), vehicle: Klucel (hydroxypropylcellulose) (HPC)","2 of 10, 3 of 10, 10 of 10"
same,T/C,"dose: 300.0 mg/kg/injection, schedule: Q04DX003 (ip), vehicle: Klucel (hydroxypropylcellulose) (HPC)",130 % of control
same,survivor count,"dose: 337.0 mg/kg/injection, schedule: Q01DX001 (ip), vehicle: water",6 of 10
same,survivor count,"dose: 337.0 mg/kg/injection, schedule: Q08DX002 (ip), vehicle: water",5 of 10
same,survivor count,[6],5 of 10
same,survivor count,"dose: 400.0 mg/kg/injection, schedule: Q01DX009 (ip), vehicle: water",0 of 10
same,survivor count,"dose: 450.0 mg/kg/injection, schedule: Q04DX003 (ip), vehicle: Klucel (hydroxypropylcellulose) (HPC)",6 of 10
same,survivor count,"dose: 506.0 mg/kg/injection, schedule: Q01DX001 (ip), vehicle: water",0 of 10
same,survivor count,"dose: 506.0 mg/kg/injection, schedule: Q04DX003 (ip), vehicle: water",0 of 10
same,survivor count,"dose: 675.0 mg/kg/injection, schedule: Q01DX001 (ip), vehicle: water",0 of 10
O=CC1CO1 (stereo not drawn),survivor count,"dose: 100.0 mg/kg/injection, schedule: Q01DX009 (ip), vehicle: saline sonified",4 of 6
CN1CCC(OC2c3ccccc3CCc3ccccc32)CC1,survivor count,[7],6 of 10
O=c1[nH]c(=O)n(C2CC(O)C(CO)O2)cc1Br (stereo not drawn),T/C,[2],126 % of control
same,T/C,[5],126 % of control
same,T/C,[6],129 % of control
same,T/C,"dose: 800.0 mg/kg/injection, schedule: Q01DX009 (ip), vehicle: Klucel (hydroxypropylcellulose) (HPC)",125 % of control [9 of 10 alive]
CN(N=O)C(N)=O,T/C,"dose: 6.25 mg/kg/injection, schedule: Q01DX009 (ip), vehicle: saline",129 % of control
same,T/C,"dose: 12.5 mg/kg/injection, schedule: Q01DX009 (ip), vehicle: saline, evaluated on day 45",145 % of control
same,T/C,"dose: 12.5 mg/kg/injection, schedule: Q01DX009 (ip), vehicle: saline, evaluated on day 60",129 % of control
same,survivor count,"dose: 25.0 mg/kg/injection, schedule: Q01DX009 (ip), vehicle: saline",10 of 10 (2×)
same,survivor count,[7],10 of 10
same,survivor count,"dose: 100.0 mg/kg/injection, schedule: Q01DX009 (ip), vehicle: saline",7 of 10
same,survivor count,"dose: 150.0 mg/kg/injection, schedule: Q01DX009 (ip), vehicle: saline",0 of 10
CC(C)C(Br)C(=O)NCC(=O)O (stereo not drawn),survivor count,"dose: 100.0 mg/kg/injection, schedule: Q01DX009 (ip), vehicle: saline with Tween-80",10 of 10
same,survivor count,"dose: 200.0 mg/kg/injection, schedule: Q01DX009 (ip), vehicle: saline with Tween-80",10 of 10
same,survivor count,"dose: 400.0 mg/kg/injection, schedule: Q01DX009 (ip), vehicle: saline with Tween-80",10 of 10
COc1cc2c(cc1Oc1c(Oc3c(O)c(OC)cc4c3C(CC(C)C)N(C)CC4)c(OC)cc3c1C(CC(C)C)N(C)CC3)C(CC(C)C)N(C)CC2 (stereo not drawn),survivor count,[2],5 of 10
Cc1cc([N+](=O)[O-])cc(C)c1OC(=O)c1ccc(N=C(N)N)cc1,survivor count,[2],1 of 10
CC(=O)Nc1cc(NC(C)=O)cc(N(CCCl)CCCl)c1,T/C,"dose: 25.0 mg/kg/injection, schedule: Q01DX009 (ip), vehicle: water",139 % of control
same,survivor count,[1],10 of 10
same,survivor count,[3],6 of 10
